Values of other authors as cited in US20070042976A1, “Method of treating cosmetic and dermatologic conditions by a demethylating agent” (priority 2005, published 2007).
At least one compound was matched to its structure with a doubt left.

How the values were obtained:
collagen gene expression = conditions: human cancer cells, including fibrosarcomas and breast carcinoma; cited from earlier work
[1] = system: myelodysplastic syndrome and myeloid leukemias; conditions: cited from earlier work

Nc1ncn([C@H]2C[C@H](O)[C@@H](CO)O2)c(=O)n1 [Decitabine, 5-aza-2-deoxycytidine]
effect on collagen gene expression (collagen gene expression): increased or reactivated collagen gene expression | clinical efficacy [1]: clinically effective
